# Results of single-concentration screens

Data taken from ChEMBL document CHEMBL3988442, “University of Dundee, Small-Polar-MMV Screening Library” (2021).

Values are the deposited “Percent Effect”, in %.
The record does not define 0% and 100%; most values in the screen are far below 50% and negative numbers occur (in some assays of this library far below -100).
Compounds were drawn at random from those tested, without regard to their results.

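Assay of Toxoplasma gondii numbers, read through their beta-galactosidase reporter with a colour substrate. Tested at 50 µM. The record gives no direction; the compounds picked for IC50 retests had high values, so higher reads as fewer parasites. Size under these conditions: about 18,000 compounds, about 170 of them at 50% or above in at least one test.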

| Compound | effect |
|---|---|
| `CS(=O)(=O)NCCOc1nc(-c2ccccc2Cl)no1` | -12.99 |
| `CN(C)c1nccc(CNc2ccc(C#N)nc2)n1` | 8.58 |
| `CNC(=O)c1ccc(CNc2cc(OC)ncn2)o1` | -10.52 |
| `CC(C)CC1NCCCNC1=O` (stereo not shown) | 0.1576 |
| `Cc1nn(CCO)c(C)c1CNCC(=O)NC(C)(C)C` | 9.584 |
| `NCCC1C(=O)Nc2ccccc21` (stereo not shown) | -6.951 |
| `O=C(Cn1ccnn1)Nc1ccncc1F` | -18.82 |
| `Cc1cncc(C(=O)Nc2cc(O)cc(F)c2)c1` | 0.7497 |
| `O=C(CN1CCCCC1=O)Nc1ncc(Cl)s1` | 14.49 |
| `CSc1ccc(NC(=O)C(C)N2CCN(C)CC2)cn1` (stereo not shown) | -5.734 |
| `COCCCOC1CN(C(=O)c2cc(F)ccc2C)C1` | 0.2477 |
| `Cc1nc(CNC(=O)NCc2cc[nH]n2)cs1` | -6.781 |
| `Cc1cc(=O)[nH]c(CCNC(=O)[C@H]2CCC[C@H](O)C2)n1` | 22.46 |
| `CC(C)N(CC(F)F)C(=O)C(N)c1ccccc1` (stereo not shown) | 7.149 |
| `CC(C)N(CCCNc1ncccc1F)S(C)(=O)=O` | -3.821 |
| `CN(C)C(=O)N1CCN(CCc2ccncc2)CC1` | 37.16 |
| `COCCSCc1cccc(NC(=O)C(C)N)c1` (stereo not shown) | -8.601 |
| `CNc1ccc(OCCN2CCCC2)cc1` | 12.53 |
| `CN(C)C(=O)c1cc(C2CC2)nn1-c1ccccc1` | -7.895 |
| `O=C(CCc1ccncc1)Nc1cncc(Br)c1O` | -1.624 |
| `CNCc1cc(C(F)(F)F)nn1C` | 14.79 |
| `CNC(=O)c1cccc(NCc2ccc(C#N)s2)n1` | 3.386 |
| `O=C1CN(C2CC2)CCCN1` | 14.27 |
| `C=C(C)c1nc(C#N)c(NCc2ccco2)o1` | 16.07 |
| `CCN(CC)CC(N)=O` | -6.066 |
| `NC[C@@H](O)c1ccc(Cl)cc1` | -12.61 |
| `COC(=O)N1CCC(Nc2nnc(C(F)(F)F)s2)CC1` | 9.072 |
| `CC(Cn1cccn1)NCC(=O)N1CCNC(=O)C1` (stereo not shown) | -12.69 |
| `Nc1noc(-c2ccc(Cl)cc2)n1` | 11.16 |
| `OCc1cc(CNc2ncccn2)ccc1F` | -17.44 |
| `NCc1ccnc(N2CCCC2)n1` | 46.54 |
| `CNC(=O)C1CCCN(C(=O)c2ccc(O)cc2F)C1` (stereo not shown) | 6.935 |
| `CN(C)C[C@@H]1CN(C)C[C@H]1NC(=O)c1ccnnc1` | 3.029 |
| `CCCc1nnc(SCc2nnnn2C2CC2)o1` | 28.37 |
| `O=C(c1ccncc1)N1C[C@H](O)[C@@H](N2CCCCC2)C1` | 21.13 |
| `Cc1ccc(F)cc1C(=O)NCCNC1CC1` | -46.67 |
| `CS(=O)(=O)N1CCC(Cc2ccccc2)C1` (stereo not shown) | -3.951 |
| `COCC(=O)N1CCN(C(=O)c2ccccc2O)CC1` | -0.2452 |
| `CCCNS(=O)(=O)c1cnn(C)c1` | -7.773 |
| `CN(C)[C@@H]1CN(C(=O)C2CCC2)C[C@H]1CO` | 3.325 |
| `CNC(=O)CCCNC(=O)OC(C)(C)C` | 4.03 |
| `CN(C)CCOC1CCCNC1` (stereo not shown) | -5.086 |
| `CC(C)N1CCC(CN)C1` (stereo not shown) | 14.58 |
| `CC(N)c1nc2c(s1)CCC2` (stereo not shown) | -11 |
| `NCCS(=O)(=O)c1cccs1` | 2.427 |
| `Cc1cccc(C(=O)NCCCNS(C)(=O)=O)c1O` | -1.036 |
| `COc1cc(CNC2CCN(C)CC2)cc2c1OCO2` | -8.868 |
| `Cc1ncn(CC(=O)NCCSc2nnnn2C)c1C` | 9.824 |
| `N#Cc1cc(NC(=O)N2CCOCC2)ccc1Cl` | -6.06 |
| `NCC(O)CN1CCc2ccccc2C1` (stereo not shown) | 3.242 |
| `COc1cccc(NC(=O)CN2CCCNCC2)c1` | -7.679 |
| `Cc1c(C(=O)NC(C)C(N)=O)sc2cccc(F)c12` (stereo not shown) | 2.504 |
| `Cc1nnc(SCc2csc(C3CC3)n2)n1CC(N)=O` | -10.28 |
| `CC(C#N)NC(=O)c1sccc1OC(F)F` (stereo not shown) | -7.33 |
| `O=C(CCC(=O)Nc1ccccc1)NCCO` | -18.6 |
| `Cc1ccc(CNCc2csnn2)c(N2CCCC2)n1` | -6.19 |
| `CC(C)n1cncc1CO` | -12.04 |
| `Cc1ccc([C@@H](O)CN)cc1` | -14.41 |
| `c1cc(CC2CCNCC2)[nH]n1` | -0.6751 |
| `CCCN1CC(C(=O)NC2CCCCC2)CC1=O` (stereo not shown) | 17.21 |
| `N#Cc1cnc2ccccc2c1N` | -2.382 |
| `Cc1noc(C(C)C)c1C(=O)Nc1ccccn1` | -8.823 |
| `Cc1nc2ccc(C(=O)NC3C=CS(=O)(=O)C3)cc2o1` (stereo not shown) | 21.98 |
| `CCn1nc(CC(C)C)cc1C(=O)N1CC(O)C1` | 7.075 |

For reference, 6 entries once more:

Compound	effect
O=C(c1ccncc1)N1C[C@H](O)[C@@H](N2CCCCC2)C1	21.13
CCN(CC)CC(N)=O	-6.066
COc1cc(CNC2CCN(C)CC2)cc2c1OCO2	-8.868
CC(C)N1CCC(CN)C1 (stereo not shown)	14.58
Cc1nc2ccc(C(=O)NC3C=CS(=O)(=O)C3)cc2o1 (stereo not shown)	21.98
CC(N)c1nc2c(s1)CCC2 (stereo not shown)	-11